Reference: PubChem BioAssay AID743454 (Peter MacCallum Cancer Centre, 2014)
Aim: 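Genes whose loss kills vorinostat-resistant colon cancer cells under vorinostat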 (primary screen). Cells: human HCT116-VR colon cancer cells, selected for vorinostat resistance. Knock-down reagent: siRNA pool against human genes, 40 nM siRNA pool. Duration: vorinostat for 24 h, read-out about 72 h after transfection. Conditions: vorinostat at 2.5 µM final. Read-out: 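Cell viability by CellTiter-Fluor and caspase 3/7 activity by luminescence, each scaled to mock wells per plate, duplicates averaged, then robust z-scored over all plates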. Direction: viability robust z-score: higher = more viable cells than screen typical; caspase robust z-score: higher = more caspase 3/7 activity than screen typical. Hit rule: 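a knock-down is a hit when classed RV1 or RV2 for lowered viability, or CA1 or CA2 for caspase activation; those lethal without drug were dropped; hits were retested singly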.
Here is a random part of about 18,000 reagents. Of all reagents, 450 (2.5%) are marked active. 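Single biological run; no consistent viability z cut-off exists, so the class columns, not z-scores, define the calls.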

| gene knocked down | viability hit class | caspase hit class | viability robust z-score | caspase robust z-score | Call |
| --- | --- | --- | --- | --- | --- |
| FZD3 | no change | no change | -0.96 | -0.77 | inactive |
| EBNA1BP2 | no change | no change | -2.73 | 1.92 | inactive |
| SCN4A | no change | no change | -0.33 | -0.44 | inactive |
| EPG5 | no change | no change | -0.26 | 2.12 | inactive |
| NKX2-8 | no change | no change | -0.18 | 0.26 | inactive |
| LGALS1 | no change | no change | -1.03 | -0.45 | inactive |
| PDE9A | no change | no change | 0.44 | 0.26 | inactive |
| MATN2 | no change | no change | -2.08 | 0.65 | inactive |
| RPS3 | no change | no change | -4.83 | -1.92 | inactive |
| FUT1 | no change | no change | -0.09 | -0.23 | inactive |
| CAPZA3 | no change | no change | 0.41 | -0.02 | inactive |
| FGD4 | no change | no change | 0.66 | 4.58 | inactive |
| FOXP1 | no change | no change | -2.94 | 1.63 | inactive |
| SLC39A5 | no change | no change | -1.17 | 0.76 | inactive |
| CEP131 | no change | no change | 1.4 | -0.16 | inactive |
| POTEA | no change | no change | 0.21 | -0.48 | inactive |
| TMEM203 | no change | CA1 (caspase activation) | -0.7 | 6.75 | active |
| ATP2B1 | no change | no change | 1.19 | -0.68 | inactive |
| ADCK2 | no change | no change | 0.26 | 0.46 | inactive |
| CA11 | no change | no change | -0.71 | 3.53 | inactive |
| LIF | no change | no change | -1.32 | 4.74 | inactive |
| PAX6 | no change | no change | -0.4 | -0.1 | inactive |
| TNFRSF13B | no change | no change | -0.88 | 1.01 | inactive |

3 entries from above, ordered by “caspase robust z-score”, highest first:
| gene knocked down | viability hit class | caspase hit class | viability robust z-score | caspase robust z-score | Call |
| --- | --- | --- | --- | --- | --- |
| TMEM203 | no change | CA1 (caspase activation) | -0.7 | 6.75 | active |
| POTEA | no change | no change | 0.21 | -0.48 | inactive |
| ATP2B1 | no change | no change | 1.19 | -0.68 | inactive |
